Source: publication PMC9266683
These are yes or no findings as the source states them, for the method shown. Sequences can lack the tags named with a protein.

By UniProt entry, the sequences of proteins in these tests, tags left out. Where a name states a change or a piece, a line headed by the entry shows the natural chain unless it says otherwise. Chains listed by the source or under a name are the forms on record and can include a tag or linker. Residues count along the entry.
UniProt O48686: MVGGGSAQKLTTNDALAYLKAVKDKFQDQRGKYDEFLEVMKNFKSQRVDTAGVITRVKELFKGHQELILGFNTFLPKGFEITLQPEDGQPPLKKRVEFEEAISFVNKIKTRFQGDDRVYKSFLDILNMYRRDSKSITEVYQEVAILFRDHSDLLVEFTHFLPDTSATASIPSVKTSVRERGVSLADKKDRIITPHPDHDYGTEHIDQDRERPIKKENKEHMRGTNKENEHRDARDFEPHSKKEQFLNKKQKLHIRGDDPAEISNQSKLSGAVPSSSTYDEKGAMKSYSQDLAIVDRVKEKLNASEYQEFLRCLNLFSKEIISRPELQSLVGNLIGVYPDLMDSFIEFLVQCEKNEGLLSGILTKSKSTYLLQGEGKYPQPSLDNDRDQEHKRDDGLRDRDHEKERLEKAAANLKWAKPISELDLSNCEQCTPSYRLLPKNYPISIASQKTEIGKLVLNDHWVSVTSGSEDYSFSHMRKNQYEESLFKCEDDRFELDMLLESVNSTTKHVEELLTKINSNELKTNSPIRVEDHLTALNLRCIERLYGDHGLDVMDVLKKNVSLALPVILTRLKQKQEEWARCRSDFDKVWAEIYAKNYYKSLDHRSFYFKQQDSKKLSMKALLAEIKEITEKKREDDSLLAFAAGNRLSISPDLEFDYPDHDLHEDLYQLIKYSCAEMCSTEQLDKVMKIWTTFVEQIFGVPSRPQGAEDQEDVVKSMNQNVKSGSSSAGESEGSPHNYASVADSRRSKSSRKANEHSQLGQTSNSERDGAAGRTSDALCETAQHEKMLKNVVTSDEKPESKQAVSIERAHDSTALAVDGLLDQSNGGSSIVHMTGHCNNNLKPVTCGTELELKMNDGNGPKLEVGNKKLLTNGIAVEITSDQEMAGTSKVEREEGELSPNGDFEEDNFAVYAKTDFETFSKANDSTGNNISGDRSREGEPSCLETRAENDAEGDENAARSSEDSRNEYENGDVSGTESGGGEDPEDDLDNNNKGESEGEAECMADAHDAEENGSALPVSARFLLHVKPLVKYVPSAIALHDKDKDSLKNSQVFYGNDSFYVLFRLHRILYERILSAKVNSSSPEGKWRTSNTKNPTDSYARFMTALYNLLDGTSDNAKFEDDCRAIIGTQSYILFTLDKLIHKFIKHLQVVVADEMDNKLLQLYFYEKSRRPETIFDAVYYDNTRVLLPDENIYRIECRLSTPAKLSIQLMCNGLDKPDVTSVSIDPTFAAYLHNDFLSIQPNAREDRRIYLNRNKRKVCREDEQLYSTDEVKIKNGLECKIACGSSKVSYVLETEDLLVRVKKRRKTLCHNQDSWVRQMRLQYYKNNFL
SNL3-ΔN (aa 391–1326), fused to the GAL4 binding domain: residues 391-1326 of O48686
SNL3-HID (aa 391–850), fused to the GAL4 binding domain: residues 391-850 of O48686
SNL3-C terminal (aa 851–1326), fused to the GAL4 binding domain: residues 851-1326 of O48686

Columns and labels:
Test in all cases: two-hybrid; Matchmaker GAL4 two-hybrid system 3, yeast AH109; VAL1 constructs in pGADT7 (AD), SNL constructs in pGBKT7 (BD); growth on medium lacking Trp, Leu, His and Ade, 3-5 d at 30 °C
[1] = molecular target: SNL3-C terminal (aa 851–1326), fused to the GAL4 binding domain (Arabidopsis thaliana) (UniProt O48686)
[2] = molecular target: SNL3-ΔN (aa 391–1326), fused to the GAL4 binding domain (Arabidopsis thaliana) (UniProt O48686)
[3] = molecular target: SNL3-HID (aa 391–850), fused to the GAL4 binding domain (Arabidopsis thaliana) (UniProt O48686)

Measured: binding

B1: VAL1 (VIVIPAROUS1/ABSCISIC ACID …3-LIKE1), full length, fused to the GAL4 activating domain (protein, UniProt Q8W4L5 1-790)
chain: MFEVKMGSKMCMNASCGTTSTVEWKKGWPLRSGLLADLCYRCGSAYESSLFCEQFHKDQSGWRECYLCSKRLHCGCIASKVTIELMDYGGVGCSTCACCHQLNLNTRGENPGVFSRLPMKTLADRQHVNGESGGRNEGDLFSQPLVMGGDKREEFMPHRGFGKLMSPESTTTGHRLDAAGEMHESSPLQPSLNMGLAVNPFSPSFATEAVEGMKHISPSQSNMVHCSASNILQKPSRPAISTPPVASKSAQARIGRPPVEGRGRGHLLPRYWPKYTDKEVQQISGNLNLNIVPLFEKTLSASDAGRIGRLVLPKACAEAYFPPISQSEGIPLKIQDVRGREWTFQFRYWPNNNSRMYVLEGVTPCIQSMMLQAGDTVTFSRVDPGGKLIMGSRKAANAGDMQGCGLTNGTSTEDTSSSGVTENPPSINGSSCISLIPKELNGMPENLNSETNGGRIGDDPTRVKEKKRTRTIGAKNKRLLLHSEESMELRLTWEEAQDLLRPSPSVKPTIVVIEEQEIEEYDEPPVFGKRTIVTTKPSGEQERWATCDDCSKWRRLPVDALLSFKWTCIDNVWDVSRCSCSAPEESLKELENVLKVGREHKKRRTGESQAAKSQQEPCGLDALASAAVLGDTIGEPEVATTTRHPRHRAGCSCIVCIQPPSGKGRHKPTCGCTVCSTVKRRFKTLMMRRKKKQLERDVTAAEDKKKKDMELAESDKSKEEKEVNTARIDLNSDPYNKEDVEAVAVEKEESRKRAIGQCSGVVAQDASDVLGVTELEGEGKNVREEPRVSS
no binding: all assays above
